A short description of the assay: qHTS Assay to Find Inhibitors of Chronic Active B-Cell Receptor Signaling. Particulars: ABC-DLBCL IkBa-CBG/CBR reporter, luminescence ratio (green luciferase fused to IkBa over red control in TMD8 lymphoma cells), 4 h. A digest of the protocol: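 Concentration-response series (up to 46 uM) were applied to TMD8 dual-reporter cells for 4 h at 37C with doxycycline. Green/red ratio, after filter-overlap correction, defined %Activity; red signal alone was normalised to basal cells and zero luminescence.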
Background: Quantitative high-throughput screening tests each substance at several concentrations.

The mark [1] stands for this setting: measured here: CBR red luminescence, cell number.
Where [2] appears, read: measured here: IkBa-CBG green luminescence.

Here are results for 18 compounds from PubChem BioAssay AID493014 (National Center for Advancing Translational Sciences (NCATS), 2011).

This is one part of the list. The main result of the screen is listed elsewhere. These columns were measured beside it and carry no call. The list favours compounds with an active or inconclusive main result. Potencies come from curve fits of mixed quality, noted in brackets.

The AC50 is the concentration giving half of the maximal activity seen.

Consider `Nc1cc(-c2ccc(Cl)cc2)nn1S(=O)(=O)c1cccc2nsnc12`, for which, under setting [1], the AC50 is 14.6 µM [falling, single point].

For `O=C(CNCCC1=CCCCC1)Nc1ccccc1N1CCCCC1`, the AC50 under setting [1] is 29.1 µM [falling, single point].

In the case of `COc1ccc(-n2cc(CNCCc3cscn3)c(-c3ccccc3Cl)n2)cc1`, the concentration at half-maximal activity (AC50) under setting [1] is 0.1 µM [rising, full curve, poor fit].

Turning to `COc1ccc(P(=O)(COc2ccc([N+](=O)[O-])cc2)c2ccc(OC)cc2)cc1`, under setting [1], the AC50 is 29.1 µM [falling, partial curve, poor fit].

Turning to `O=C(CSc1nnnn1-c1ccccc1)Nc1ccc(N2CCOCC2)cc1`, the AC50 under setting [1] was 35.5 µM [rising, single point].

For the compound `CC(C)CN=C(NS(=O)(=O)c1ccccc1)C(Cl)(Cl)Cl`, under setting [1], the AC50 is 10.3 µM [falling, partial curve].

Take `CCN1C(=O)c2cccc3c(S(=O)(=O)N(C(C)=O)c4ccc(OC(C)=O)cc4)ccc1c23`: the AC50 reads like this: under setting [1], 25.9 µM [rising, single point]; under setting [2], 9.2 µM [falling, single point].

`CCn1nc(C(=O)OC(C(=O)c2c[nH]c3ccccc23)c2ccccc2)c2ccccc2c1=O` (stereo not given): the AC50 under setting [1] was 3.66 µM [falling, single point].

`COc1ccc(C(=O)OCc2cc(=O)n3ccsc3n2)cc1F`: under setting [1], the concentration at half-maximal activity (AC50) was 25.9 µM [rising, single point].

With `Cc1ccc2c(c1)C(=O)C(=O)N2CC1COc2ccccc2O1` (stereo not given), the AC50 under setting [1] is 7.08 µM [rising, full curve] and the AC50 under setting [2] is 8.91 µM [falling, partial curve].

With `O=S(=O)(c1ccc(Br)cc1)N1CCN=C1SCc1cccnc1`, the AC50 under setting [1] is 2.82 µM [rising, partial curve, poor fit].

`COc1ccc(Cl)cc1NC(=O)c1cc(-c2ccco2)on1`: the AC50 under setting [1] is 0.794 µM [rising, full curve, poor fit].

Take `COc1ccccc1-c1nnc(NC(=O)OCC(C)C)s1`: the AC50 under setting [1] was 0.316 µM [rising, full curve, poor fit].

For the compound `CC1(C)CC(=O)C(C=NCCN2CCNC2=O)=C(O)C1`, under setting [1], the concentration at half-maximal activity (AC50) is 32.6 µM [rising, partial curve, poor fit].

Turning to `COC1=Cc2c(ccc3ccc(=O)oc23)OC1(C)C`, the AC50 under setting [1] is 2.91 µM [rising, partial curve, poor fit].

On to `CCOC(=O)N1CCC(=NNC(=O)NC2CCCCC2)CC1`, for which, under setting [1], the AC50 is 35.5 µM [falling, single point].

Regarding `C/C(=N\Nc1ccccn1)c1ccc(OC(F)F)cc1`, under setting [1], the AC50 was 8.91 µM [rising, partial curve].

With `COc1cc(C(=O)NCCOc2ccccc2C)c(Br)c(OC)c1OC`, under setting [1], the AC50 was 18.4 µM [rising, partial curve, poor fit].
